PubChem BioAssay AID1224830 | NIAID – 2016

Purpose: 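Genes whose knock-down alters the TNF-alpha reporter response to LPS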 (primary screen)
Cell system: human THP-1 monocytic leukaemia cells, TNF dual-luciferase reporter clone, PMA-differentiated to macrophage-like cells
Knock-down reagent: siRNA pool against human genes, 50 nM
Duration: LPS for 4 h, given about 3 days after siRNA transfection
Conditions: bacterial LPS (TLR4 ligand), 10 ng/ml
Detection: 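Ratio of firefly to renilla light, scaled to the plate median and expressed as a robust z-score per replicate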
Scale: TNF reporter robust z-score: higher = stronger TNF reporter response to LPS
Rule for the call: 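Each well counts as active if its z-score is over 2.8 or under -1.5; controls are left without a call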
In all, the deposit lists about 18,000 reagents; below is a part drawn at random. About 2,900 of them (16%) count as active. 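Calls are made per well; low scores hint the gene aids the LPS response, high scores that it dampens it.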 Entries without a mark were called inactive. Repeated entries: four replicate wells of each siRNA pool. No sequences are given here.

What did the screen give for KCTD9?
TNF reporter robust z-score: -1.47

With KCTD9, what does the deposit list?
TNF reporter robust z-score: -0.84

For KCTD9, what does the deposit list?
TNF reporter robust z-score: -1.03

For KCTD9, what was measured?
TNF reporter robust z-score: -0.63

With NFE2L2, what was measured?
TNF reporter robust z-score: -0.55

What is on record for NFE2L2?
TNF reporter robust z-score: 0.62

For NFE2L2, how do the results read?
TNF reporter robust z-score: 0.07

How did the screen score NFE2L2?
TNF reporter robust z-score: 0.4

Which result is listed for LURAP1L?
TNF reporter robust z-score: 0.48

With LURAP1L, what does the deposit list?
TNF reporter robust z-score: -0.37

Which result is listed for LURAP1L?
TNF reporter robust z-score: 0.49

How did the screen score LURAP1L?
TNF reporter robust z-score: -0.15

With CMTM1, how do the results read?
TNF reporter robust z-score: -1.25

With CMTM1, how do the results read?
TNF reporter robust z-score: -1.01

For CMTM1, what does the deposit list?
TNF reporter robust z-score: -0.82

What did the screen give for CMTM1?
TNF reporter robust z-score: -0.92

How did the screen score ZDHHC21?
TNF reporter robust z-score: -1.08

How did the screen score ZDHHC21?
TNF reporter robust z-score: -0.48

How did the screen score ZDHHC21?
TNF reporter robust z-score: 2.43

Which result is listed for ZDHHC21?
TNF reporter robust z-score: 0.6

Which result is listed for CDHR4?
TNF reporter robust z-score: -1.67 (active)

Which result is listed for CDHR4?
TNF reporter robust z-score: -1.57 (active)

Which result is listed for CDHR4?
TNF reporter robust z-score: -1.79 (active)

What is on record for CDHR4?
TNF reporter robust z-score: -0.55

For ADAMTSL4, how do the results read?
TNF reporter robust z-score: -0.73

For ADAMTSL4, how do the results read?
TNF reporter robust z-score: 0.37

What did the screen give for ADAMTSL4?
TNF reporter robust z-score: -0.15

With ADAMTSL4, what does the deposit list?
TNF reporter robust z-score: 0.4

What did the screen give for ANXA3?
TNF reporter robust z-score: 0.89

For ANXA3, what does the deposit list?
TNF reporter robust z-score: 1.12

With ANXA3, how do the results read?
TNF reporter robust z-score: 0.82

What is on record for ANXA3?
TNF reporter robust z-score: 0.48

How did the screen score CYP2A7?
TNF reporter robust z-score: 0.14

How did the screen score CYP2A7?
TNF reporter robust z-score: 1.02

Which result is listed for CYP2A7?
TNF reporter robust z-score: 0.47

For STBD1, how do the results read?
TNF reporter robust z-score: 1.13

For STBD1, how do the results read?
TNF reporter robust z-score: 1.08

How did the screen score STBD1?
TNF reporter robust z-score: 1.69

For STBD1, how do the results read?
TNF reporter robust z-score: 3.75 (active)

What is on record for KRTAP10-2?
TNF reporter robust z-score: 0.47

How did the screen score KRTAP10-2?
TNF reporter robust z-score: 1.04

What is on record for KRTAP10-2?
TNF reporter robust z-score: 0.23

What is on record for KRTAP10-2?
TNF reporter robust z-score: 1.61

Which result is listed for SMPDL3A?
TNF reporter robust z-score: -0.72

For SMPDL3A, what does the deposit list?
TNF reporter robust z-score: -0.18

With SMPDL3A, what does the deposit list?
TNF reporter robust z-score: -0.41

How did the screen score SMPDL3A?
TNF reporter robust z-score: -0.5

With DUSP29, what was measured?
TNF reporter robust z-score: -0.43

For DUSP29, how do the results read?
TNF reporter robust z-score: 0.23

With DUSP29, what does the deposit list?
TNF reporter robust z-score: 1.92

What is on record for DUSP29?
TNF reporter robust z-score: 0.28

How did the screen score DNM2?
TNF reporter robust z-score: 0.96

How did the screen score DNM2?
TNF reporter robust z-score: 0.47

What did the screen give for DNM2?
TNF reporter robust z-score: 0.52

How did the screen score DNM2?
TNF reporter robust z-score: 0.31

Which result is listed for SCHIP1?
TNF reporter robust z-score: -0.75

For SCHIP1, what was measured?
TNF reporter robust z-score: -0.23

For SCHIP1, what was measured?
TNF reporter robust z-score: -1.38

With SCHIP1, what does the deposit list?
TNF reporter robust z-score: -0.69

How did the screen score TRIML2?
TNF reporter robust z-score: -0.25

How did the screen score TRIML2?
TNF reporter robust z-score: -0.72

With TRIML2, what was measured?
TNF reporter robust z-score: -0.99

For TRIML2, what does the deposit list?
TNF reporter robust z-score: -1.03
